# For some of these results: Expression values are those of the mRNA of the gene that encodes the peptide; a gene is named only where it was looked up.
# Tests used:
# source genes (mRNA) [1] = test: Expression profiling of source genes by in-house RNASeq of tumor and normal tissues (Table 18, FIG. 2); parameters: species or system human; key: very highly over-expressed in tumors compared to a panel of normal tissues (+++); highly over-expressed in tumors compared to a panel of normal tissues (++); over-expressed in tumors compared to a panel of normal tissues (+); settings: source gene of peptide; for Expression score CRC: colorectal cancer (N = 20) vs panel of normal tissues; for Expression score NSCLC: non-small cell lung cancer (N = 11) vs panel of normal tissues; for Expression score OC: ovarian cancer (N = 12) vs panel of normal tissues; for Expression score PC: pancreatic cancer (N = 26) vs panel of normal tissues
# HLA-A*02 = test: Identification and relative LC-MS quantitation of HLA-A*02-presented tumor-associated peptides on tissue samples (presentation profiles, Tables 13A, 13B, 15, FIG. 1); parameters: species or system human; key to Presentation score NHL / Presentation score CLL / Presentation score BRCA / Presentation score AML / Presentation score GB / Presentation score NSCLC / Presentation score GBC_CCC / Presentation score UEC / Presentation score MEL / Presentation score OSCAR / Presentation score GC / Presentation score UBC / Presentation score OC / Presentation score RCC / Presentation score CRC / Presentation score PCA / Presentation score HCC / Presentation score PC / Presentation score SCLC: specifically presented on tumors (++++); very highly over-presented on tumors compared to a panel of normal tissues (+++); highly over-presented on tumors compared to a panel of normal tissues (++); over-presented on tumors compared to a panel of normal tissues (+); settings: for Presentation score BRCA: breast cancer (N = 17) vs panel of normal tissues (N = 262); for Presentation score NHL: non-Hodgkin lymphoma (N = 18) vs panel of normal tissues (N = 262); for Presentation score UBC: urinary bladder cancer (N = 16) vs panel of normal tissues (N = 262); for Presentation score UEC: uterine cancer (N = 15) vs panel of normal tissues (N = 262); for Peptide Presentation on cancer entities: HLA-A*02-binding tumor-associated peptides; for Presentation score OC: ovarian cancer (N = 20) vs panel of normal tissues (N = 262)
# source genes (mRNA) [2] = test: Gene and exon expression of source genes, TCGA tumor samples compared with normal tissue samples (Lonsdale, 2013) (Table 17); parameters: species or system human; settings: for Target coverage: over-expression category of source gene, LAML: Acute Myeloid Leukemia (N = 173); for Target coverage: over-expression category of source gene, BLCA: Bladder urothelial carcinoma (N = 408); for Target coverage: over-expression category of source gene, BRCA: Breast cancer (N = 1104), cutoff more than 2-fold above highest 75% percentile of high and medium risk normal tissue samples; for Target coverage: over-expression category of source gene, READ: Colon and rectal adenocarcinoma (N = 167); for Target coverage: over-expression category of source gene, COAD: Colon and rectal adenocarcinoma (N = 462); for Target coverage: over-expression category of source gene, ESCA: Esophageal cancer (N = 185); for Target coverage: over-expression category of source gene, GBM: Glioblastoma multiforme (N = 169); for Target coverage: over-expression category of source gene, KICH: Kidney chromophobe (N = 66); for Target coverage: over-expression category of source gene, LGG: Lower grade glioma (N = 534); for Target coverage: over-expression category of source gene, LUAD: Lung adenocarcinoma (N = 517); for Target coverage: over-expression category of source gene, DLBC: Lymphoid neoplasm diffuse large B-cell lymphoma (N = 48); for Target coverage: over-expression category of source gene, OV: Ovarian serous cystadenocarcinoma (N = 309); for Target coverage: over-expression category of source gene, KIRP: Papillary kidney carcinoma (N = 291); for Target coverage: over-expression category of source gene, SKCM: Skin cutaneous melanoma (N = 473); for Target coverage: over-expression category of source gene, STAD: Stomach adenocarcinoma (N = 415); for Target coverage: over-expression category of source gene, UCEC: Uterine corpus endometrial carcinoma (N = 546); for Target coverage: over-expression category of source gene, PAAD: Pancreatic ductal adenocarcinoma (N = 179)
# [3] = Table 13A, cancer entities on which the peptide was found presented
# [4] = Table 13B, presentation on additional cancer entities
# [5] = cutoff more than 2-fold above highest 75% percentile of normal tissue samples
Substance,Expression score CRC (source genes (mRNA) [1]),Expression score NSCLC (source genes (mRNA) [1]),Expression score OC (source genes (mRNA) [1]),Presentation score BRCA (HLA-A*02; HLA-A*02 peptides),Presentation score NHL (HLA-A*02; HLA-A*02 peptides),Presentation score UBC (HLA-A*02; HLA-A*02 peptides),Presentation score UEC (HLA-A*02; HLA-A*02 peptides),Peptide Presentation on cancer entities (HLA-A*02; [3]),Peptide Presentation on cancer entities (HLA-A*02; [4]),"Target coverage: over-expression category of source gene, LAML (source genes (mRNA) [2]; [5])","Target coverage: over-expression category of source gene, BLCA (source genes (mRNA) [2]; [5])","Target coverage: over-expression category of source gene, BRCA (source genes (mRNA) [2])","Target coverage: over-expression category of source gene, READ (source genes (mRNA) [2]; [5])","Target coverage: over-expression category of source gene, COAD (source genes (mRNA) [2]; [5])","Target coverage: over-expression category of source gene, ESCA (source genes (mRNA) [2]; [5])","Target coverage: over-expression category of source gene, GBM (source genes (mRNA) [2]; [5])","Target coverage: over-expression category of source gene, KICH (source genes (mRNA) [2]; [5])","Target coverage: over-expression category of source gene, OV (source genes (mRNA) [2]; [5])","Target coverage: over-expression category of source gene, STAD (source genes (mRNA) [2]; [5])",Presentation score OC (HLA-A*02; HLA-A*02 peptides),further results
93: peptide found in TTI1 (gene looked up) (QVLELDVADI; listed as Homo sapiens) [compound 93],+,+,+,+++,+++,+++,+++,"GC, NSCLC, PCA, SCLC, UBC, UEC, BRCA, CRC, AML, NHL",HNSCC,A (>=50% of tumors above the cutoff),"B (>= 20% of tumors above the cutoff, but <50%)","C (>=5% of tumors above the cutoff, but <20%)",A (>=50% of tumors above the cutoff),"B (>= 20% of tumors above the cutoff, but <50%)",A (>=50% of tumors above the cutoff),"B (>= 20% of tumors above the cutoff, but <50%)","C (>=5% of tumors above the cutoff, but <20%)",A (>=50% of tumors above the cutoff),"B (>= 20% of tumors above the cutoff, but <50%)",,"Expression score SCLC (source genes (mRNA) [1]; small cell lung cancer (N = 10) vs panel of normal tissues): +; Presentation score AML (HLA-A*02; HLA-A*02 peptides, acute myeloid leukemia (N = 18) vs panel of normal tissues (N = 262)): +++; Presentation score CRC (HLA-A*02; HLA-A*02 peptides, colorectal cancer (N = 28) vs panel of normal tissues (N = 262)): +++; Presentation score GC (HLA-A*02; HLA-A*02 peptides, gastric cancer (N = 29) vs panel of normal tissues (N = 262)): +++; Presentation score NSCLC (HLA-A*02; HLA-A*02 peptides, non-small cell lung cancer (N = 90) vs panel of normal tissues (N = 262)): +++; Presentation score PCA (HLA-A*02; HLA-A*02 peptides, prostate cancer and benign prostate hyperplasia (N = 39) vs panel of normal tissues (N = 262)): +++; Presentation score SCLC (HLA-A*02; HLA-A*02 peptides, small cell lung cancer (N = 19) vs panel of normal tissues (N = 262)): +++; Target coverage: over-expression category of source gene, CHOL (source genes (mRNA) [2]; Cholangiocarcinoma (N = 36), cutoff more than 2-fold above highest 75% percentile of normal tissue samples): C (>=5% of tumors above the cutoff, but <20%); Target coverage: over-expression category of source gene, LIHC (source genes (mRNA) [2]; Liver hepatocellular carcinoma (N = 374), cutoff more than 2-fold above highest 75% percentile of normal tissue samples): C (>=5% of tumors above the cutoff, but <20%); Target coverage: over-expression category of source gene, LGG (source genes (mRNA) [2]; [5]): C (>=5% of tumors above the cutoff, but <20%); Target coverage: over-expression category of source gene, LUAD (source genes (mRNA) [2]; [5]): C (>=5% of tumors above the cutoff, but <20%); Target coverage: over-expression category of source gene, LUSC (source genes (mRNA) [2]; Lung squamous cell carcinoma (N = 503), cutoff more than 2-fold above highest 75% percentile of normal tissue samples): B (>= 20% of tumors above the cutoff, but <50%); Target coverage: over-expression category of source gene, DLBC (source genes (mRNA) [2]; [5]): C (>=5% of tumors above the cutoff, but <20%); Target coverage: over-expression category of source gene, KIRP (source genes (mRNA) [2]; [5]): C (>=5% of tumors above the cutoff, but <20%); Target coverage: over-expression category of source gene, PRAD (source genes (mRNA) [2]; Prostate adenocarcinoma (N = 498), cutoff more than 2-fold above highest 75% percentile of normal tissue samples): C (>=5% of tumors above the cutoff, but <20%); Target coverage: over-expression category of source gene, SKCM (source genes (mRNA) [2]; [5]): B (>= 20% of tumors above the cutoff, but <50%); Target coverage: over-expression category of source gene, UCEC (source genes (mRNA) [2]; [5]): B (>= 20% of tumors above the cutoff, but <50%)"
25: peptide found in MUC16 (gene looked up) (TMDSVLVTV; listed as Homo sapiens) [compound 25],,,+++,,,,++++,"OC, UEC",,,"C (>=5% of tumors above the cutoff, but <20%)","C (>=5% of tumors above the cutoff, but <20%)",,,,,,A (>=50% of tumors above the cutoff),,++++,"Expression score PC (source genes (mRNA) [1]): +; Expression score UEC (source genes (mRNA) [1]; uterine cancer (N = 10) vs panel of normal tissues): ++; Target coverage: over-expression category of source gene, LUAD (source genes (mRNA) [2]; [5]): C (>=5% of tumors above the cutoff, but <20%); Target coverage: over-expression category of source gene, PAAD (source genes (mRNA) [2]; [5]): C (>=5% of tumors above the cutoff, but <20%); Target coverage: over-expression category of source gene, UCEC (source genes (mRNA) [2]; [5]): A (>=50% of tumors above the cutoff)"
123: peptide found in MST1R (gene looked up) (VLDPALPALV; listed as Homo sapiens) [compound 123],++,+,+,,,++++,,"OC, UBC","NSCLC, UEC, HNSCC",,,,"C (>=5% of tumors above the cutoff, but <20%)","C (>=5% of tumors above the cutoff, but <20%)","C (>=5% of tumors above the cutoff, but <20%)",,,,"C (>=5% of tumors above the cutoff, but <20%)",++++,"Expression score OSCAR (source genes (mRNA) [1]; esophageal cancer incl. gastric-esophageal junction (N = 11) vs panel of normal tissues): +; Expression score GBC_CCC (source genes (mRNA) [1]; gallbladder adenocarcinoma and cholangiocarcinoma (N = 3) vs panel of normal tissues): +; Expression score GC (source genes (mRNA) [1]; gastric cancer (N = 11) vs panel of normal tissues): +++; Expression score PC (source genes (mRNA) [1]): +++; Expression score UBC (source genes (mRNA) [1]; urinary bladder cancer (N = 10) vs panel of normal tissues): +++; Target coverage: over-expression category of source gene, PAAD (source genes (mRNA) [2]; [5]): C (>=5% of tumors above the cutoff, but <20%)"
19: peptide found in BMP2K (gene looked up) (SISDNVWEV; listed as Homo sapiens) [compound 19],,,,++++,++++,,++++,"GB, OSCAR, OC, UEC, BRCA, MEL, NHL",HNSCC,A (>=50% of tumors above the cutoff),,"C (>=5% of tumors above the cutoff, but <20%)",,,"B (>= 20% of tumors above the cutoff, but <50%)","C (>=5% of tumors above the cutoff, but <20%)","C (>=5% of tumors above the cutoff, but <20%)","C (>=5% of tumors above the cutoff, but <20%)","B (>= 20% of tumors above the cutoff, but <50%)",++++,"Expression score GB (source genes (mRNA) [1]; glioblastoma (N = 24) vs panel of normal tissues): +; Expression score NHL (source genes (mRNA) [1]; non-Hodgkin lymphoma (N = 10) vs panel of normal tissues): +; Presentation score OSCAR (HLA-A*02; HLA-A*02 peptides, esophageal cancer, including cancer of the gastric-esophageal junction (N = 17) vs panel of normal tissues (N = 262)): ++++; Presentation score GB (HLA-A*02; HLA-A*02 peptides, glioblastoma (N = 41) vs panel of normal tissues (N = 262)): ++++; Presentation score MEL (HLA-A*02; HLA-A*02 peptides, melanoma (N = 7) vs panel of normal tissues (N = 262)): ++++; Target coverage: over-expression category of source gene, KIRC (source genes (mRNA) [2]; Clear cell kidney carcinoma (N = 534), cutoff more than 2-fold above highest 75% percentile of normal tissue samples): B (>= 20% of tumors above the cutoff, but <50%); Target coverage: over-expression category of source gene, LGG (source genes (mRNA) [2]; [5]): C (>=5% of tumors above the cutoff, but <20%); Target coverage: over-expression category of source gene, DLBC (source genes (mRNA) [2]; [5]): B (>= 20% of tumors above the cutoff, but <50%); Target coverage: over-expression category of source gene, KIRP (source genes (mRNA) [2]; [5]): C (>=5% of tumors above the cutoff, but <20%); Target coverage: over-expression category of source gene, SKCM (source genes (mRNA) [2]; [5]): C (>=5% of tumors above the cutoff, but <20%)"

# From US20170189504A1, “NOVEL PEPTIDES AND COMBINATION OF PEPTIDES FOR USE IN IMMUNOTHERAPY AGAINST VARIOUS CANCERS” (immatics biotechnologies GmbH, priority 2015, published 2017)
